Percent effect of library compounds

Chains of the proteins cited; added tags and fusions are not shown. Residues count along the entry.
UniProt P9WFT3, whole entry: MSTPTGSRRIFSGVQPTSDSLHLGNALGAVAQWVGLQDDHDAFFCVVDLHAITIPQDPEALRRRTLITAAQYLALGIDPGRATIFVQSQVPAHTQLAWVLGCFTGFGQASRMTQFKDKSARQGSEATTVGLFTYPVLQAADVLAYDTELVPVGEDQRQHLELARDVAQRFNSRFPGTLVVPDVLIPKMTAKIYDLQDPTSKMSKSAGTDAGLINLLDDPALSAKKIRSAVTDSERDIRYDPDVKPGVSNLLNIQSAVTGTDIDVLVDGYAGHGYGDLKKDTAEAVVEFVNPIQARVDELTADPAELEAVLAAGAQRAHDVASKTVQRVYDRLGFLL
UniProt I6X8D2, whole entry: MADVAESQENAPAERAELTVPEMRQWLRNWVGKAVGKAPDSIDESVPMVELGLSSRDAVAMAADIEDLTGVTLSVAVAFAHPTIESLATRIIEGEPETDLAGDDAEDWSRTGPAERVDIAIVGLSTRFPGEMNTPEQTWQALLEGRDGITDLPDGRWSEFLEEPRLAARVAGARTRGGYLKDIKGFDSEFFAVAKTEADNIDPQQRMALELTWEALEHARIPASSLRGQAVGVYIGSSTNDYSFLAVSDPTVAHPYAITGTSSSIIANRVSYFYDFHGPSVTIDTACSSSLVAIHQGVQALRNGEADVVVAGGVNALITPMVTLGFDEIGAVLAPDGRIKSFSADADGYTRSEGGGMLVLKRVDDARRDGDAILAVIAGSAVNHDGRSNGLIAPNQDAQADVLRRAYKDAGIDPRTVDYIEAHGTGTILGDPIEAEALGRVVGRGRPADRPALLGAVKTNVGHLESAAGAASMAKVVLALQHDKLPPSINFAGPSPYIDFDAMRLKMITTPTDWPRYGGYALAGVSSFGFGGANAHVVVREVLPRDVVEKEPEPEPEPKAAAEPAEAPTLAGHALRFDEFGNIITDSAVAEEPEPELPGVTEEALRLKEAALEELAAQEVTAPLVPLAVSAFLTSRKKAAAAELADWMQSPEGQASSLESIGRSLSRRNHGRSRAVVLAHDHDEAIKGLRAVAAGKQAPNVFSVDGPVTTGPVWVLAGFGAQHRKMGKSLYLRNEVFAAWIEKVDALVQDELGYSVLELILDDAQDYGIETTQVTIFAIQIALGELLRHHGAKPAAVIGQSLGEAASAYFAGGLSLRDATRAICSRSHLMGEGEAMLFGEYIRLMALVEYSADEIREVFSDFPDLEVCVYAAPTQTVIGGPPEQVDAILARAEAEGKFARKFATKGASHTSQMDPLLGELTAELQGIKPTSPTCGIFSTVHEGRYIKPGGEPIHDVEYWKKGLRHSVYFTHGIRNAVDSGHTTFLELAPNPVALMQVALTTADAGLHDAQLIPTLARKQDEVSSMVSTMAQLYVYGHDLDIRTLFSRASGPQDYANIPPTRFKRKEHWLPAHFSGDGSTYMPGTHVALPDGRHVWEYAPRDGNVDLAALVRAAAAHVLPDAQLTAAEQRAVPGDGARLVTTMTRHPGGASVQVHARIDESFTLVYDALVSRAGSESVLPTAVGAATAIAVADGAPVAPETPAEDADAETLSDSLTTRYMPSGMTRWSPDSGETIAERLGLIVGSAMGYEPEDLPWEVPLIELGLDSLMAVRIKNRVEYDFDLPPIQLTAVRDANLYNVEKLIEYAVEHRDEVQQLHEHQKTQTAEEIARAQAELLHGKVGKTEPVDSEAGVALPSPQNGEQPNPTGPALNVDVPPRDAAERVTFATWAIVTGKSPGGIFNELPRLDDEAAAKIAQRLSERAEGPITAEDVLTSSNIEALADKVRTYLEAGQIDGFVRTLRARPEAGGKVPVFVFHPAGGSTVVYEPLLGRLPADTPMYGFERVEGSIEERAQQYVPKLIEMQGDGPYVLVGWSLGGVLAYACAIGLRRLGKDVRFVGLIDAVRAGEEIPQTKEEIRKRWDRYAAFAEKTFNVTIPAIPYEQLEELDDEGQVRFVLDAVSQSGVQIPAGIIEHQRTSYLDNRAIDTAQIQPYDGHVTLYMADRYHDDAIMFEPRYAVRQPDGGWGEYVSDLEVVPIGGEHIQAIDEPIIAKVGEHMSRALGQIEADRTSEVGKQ
UniProt Q4DA54, 1-478: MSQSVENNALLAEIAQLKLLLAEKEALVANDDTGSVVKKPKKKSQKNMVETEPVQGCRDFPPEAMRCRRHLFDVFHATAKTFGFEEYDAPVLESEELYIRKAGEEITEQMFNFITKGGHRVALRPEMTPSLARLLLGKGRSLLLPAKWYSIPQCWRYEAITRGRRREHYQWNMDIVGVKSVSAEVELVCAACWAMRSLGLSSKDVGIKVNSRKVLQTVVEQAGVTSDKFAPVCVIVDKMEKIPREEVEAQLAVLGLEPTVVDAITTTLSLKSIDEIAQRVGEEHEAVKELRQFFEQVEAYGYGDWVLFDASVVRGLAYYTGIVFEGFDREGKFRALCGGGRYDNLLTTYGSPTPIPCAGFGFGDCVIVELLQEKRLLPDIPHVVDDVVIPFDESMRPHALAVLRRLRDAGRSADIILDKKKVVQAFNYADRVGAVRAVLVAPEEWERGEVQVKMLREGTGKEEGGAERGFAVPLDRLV

Data taken from ChEMBL document CHEMBL3988442, “University of Dundee, Small-Polar-MMV Screening Library” (2021).

MtTrpRS: 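Tryptophan-tRNA ligase, Mycobacterium tuberculosis (UniProt P9WFT3). Enzyme assay of tryptophanyl-tRNA synthetase; the read-out is not stated. Tested at 10 µM. Higher most likely means stronger inhibition; the record gives no direction and few retests gave an IC50. Size under these conditions: about 65,000 compounds, about 64 of them at 50% or above in at least one test.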
Leishmania in macrophages: 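Cell assay of Leishmania donovani living inside macrophages; the read-out is not stated. Compounds at 30 µM. Direction is inferred from retests: higher values go with stronger inhibition. Size under these conditions: about 69,000 compounds, about 1,000 of them at 50% or above in at least one test.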
Pks13 thioesterase: 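Enzyme assay of the thioesterase domain of polyketide synthase 13; the read-out is not stated. Target: Polyketide synthase Pks13, Mycobacterium tuberculosis (UniProt I6X8D2). Tested at 30 µM. Higher reads as stronger inhibition (inferred from which compounds were picked for retests). Size under these conditions: about 67,000 compounds, about 300 of them at 50% or above in at least one test.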
TcHisRS: 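Enzyme assay of histidyl-tRNA synthetase; the read-out is not stated. Target: Histidine-tRNA ligase, Trypanosoma cruzi CL Brener (UniProt Q4DA54). Concentration: 30 µM. The record gives no direction; compounds that gave an IC50 in retests scored well above the rest, so higher reads as stronger inhibition. Size under these conditions: about 69,000 compounds, about 31 of them at 50% or above in at least one test.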

The filed quantity is “Percent Effect” (%). The controls that fix the scale are not given in the record; negative values are as filed. This is an unselected part of the compounds tested. Two or more numbers in one place are separate tests of the same structure; such repeats can differ widely. A dash means the value is not listed here; it may have been measured.

Compound	MtTrpRS	Leishmania in macrophages	Pks13 thioesterase	TcHisRS
Cn1ccnc1NC[C@@H]1CCC[C@@H]2CN(CC3CC3)C[C@@H]21	-5.07%	-	-37.46%	1.266%
COC[C@@]12CCO[C@@H]1CCN(C(=O)Cc1cccc(F)c1)C2	-0.9009%	-	-0.9073%	7.018%
OCC1CCCN1c1cc(NCCNc2cccnn2)ncn1 (stereo unspecified)	2.039%	20.93%	-17.41%	3.659%
O=S(=O)(c1ccccc1)N1CCCCC1c1cc[nH]n1 (stereo unspecified)	-1.583%	-33.37%	-17.2%	6.452%
CC(C)c1nnc(NC(=O)Cc2ccc(F)cc2)[nH]1	2.257%	4.907%	-3.074%	2.941%
COCCC(=O)N1CCC(c2noc3nc(C)cc(C(F)(F)F)c23)CC1	-2.258%	-7.976%	-38.54%	3.784%
CCSCC(C)NCc1ccccc1-n1ccnc1 (stereo unspecified)	-1.724%	-5.681%	23.35%	4.762%
Cc1nc(CN2CCCC(N(C)Cc3nnc(C4CC4)o3)C2)no1 (stereo unspecified)	-0.895%	5.729%	-11.62%	3.361%
CC(C)N1[C@H](Cn2cccn2)C[C@@H]2CN(Cc3ccoc3)CC[C@@H]21	1.066%	-	-17.18%	6.135%
O=C(O)C(F)(F)F.c1cncc(-c2ccc3c(c2)C2(CC3)CCN(c3nncs3)CC2)c1	-	47.88%	-	-
O=C(O)C(F)(F)F.[H][C@@]12COC[C@]1(CNC(=O)c1ccsc1)CN(Cc1cc(C)on1)C2	-	18.56%	-	-
CCCn1ncnc1C(C)NC(=O)C1CCN(CC(N)=O)CC1 (stereo unspecified)	-1.104%	22.58%	-31.39%	4.348%
CC(=O)N1CCCN(C(=O)NCCOc2ccc3c(c2)OCO3)CC1	-1.885%	8.196%	-7.177%	3.429%
CNC(=O)c1cc(C2CCCN2)n[nH]1.Cl (stereo unspecified)	-	6.263%	-	-
O=C(COc1cccnc1)NCc1nncn1C1CCCCC1	-3.366%	25.14%	-20.28%	11.9%
Cn1nc(CNC(=O)CC#N)c2c1CN(CC1CC1)CC2.O=C(O)C(F)(F)F	-	0.7708%	-	-
COC(=O)c1ccc(CNC(=O)Nc2ccc(=O)n(C)c2)cc1	1.135%	-11.9%	-14.91%	7.792%
Cc1cc(CN2CCC(CNS(=O)(=O)c3ccc(Br)s3)CC2)c(C)o1	4.083%	35.42%	-17.02%	9.845%
O=C(NCc1cncc2c1CCN(Cc1ccoc1)C2)C1CC1	0.3814%	-	-20.72%	1.493%
COCc1ncn(Cc2nc(-c3ccc(OC)cc3F)oc2C)n1	7.492%	-35.79%	14.42%	-2.439%
NC(=O)C(NCc1nn(-c2ccccc2)c2c1CCC2)c1ccccc1 (stereo unspecified)	-1.144%	12.31%	-9.966%	11.76%
O=C(c1ccco1)N1CC[C@H]2[C@H]1CCN2CC1CCOCC1	4.053%	-	-30.59%	4.918%
O=C(O)C1(n2ccnc2)CCN(Cc2ccc3occc3c2)CC1	-2.082%	19.99%	-12.25%	-0.5405%
CC(NC(=O)CSCC#N)c1ccc(F)cc1 (stereo unspecified)	3.359%	-20.15%	-	7.514%
[H][C@]12CCN(C(=O)Cc3cccc(OC)c3)[C@@]1([H])CCC(=O)N2C	-	-38.15% and -9.527%	-	-
COC[C@@H]1CC[C@H]2[C@H](CCN2S(=O)(=O)c2ccc(OC)cc2)O1	0.09588%	-	-5.21%	-0.5464%
O=C(O)C(F)(F)F.O=C(O)C(F)(F)F.O=C(O)C(F)(F)F.[H][C@@]12CN(Cc3ccco3)C[C@]1([H])OCCN2CCN1CCCC1	-	2.116%	-	-
COC1COC2(CCN(C(=O)c3cocn3)CC2)C1 (stereo unspecified)	-1.83%	-1.503%	-23.29%	2.299%
Cn1ccnc1C(=O)N1CCC2(CCN2CC2CC2)C1.O=C(O)C(F)(F)F (stereo unspecified)	-	-4.482%	-	-
CSc1ccc(C(CN)N2CCc3sccc3C2)cc1 (stereo unspecified)	3.072%	25.09%	-40.61%	1.087%
CC(C)C(=O)N1CCCC2(CCCN2CC2CCCC2)C1.O=C(O)C(F)(F)F (stereo unspecified)	-	-22.07%	-	-
Cc1nc(-c2cc(Cl)c3c(c2)CC(CN)O3)c[nH]1 (stereo unspecified)	1.27%	22.44%	-37.45%	28.24%
CCCS(=O)(=O)N1CCOC2(COCCN(C(C)=O)C2)C1 (stereo unspecified)	5.07%	15.45%	-27.31%	5.063%
COc1nc2c(cc1C(=O)NCc1noc(-c3ccco3)n1)CCC2	1.419%	26.01%	6.912%	2.353%
CNC(=O)C1CCCCN1C(=O)Cc1csc(-c2ccc(C)o2)n1 (stereo unspecified)	0.2913%	20.43%	-31.29%	2.941%
CC(Cc1ccco1)NS(=O)(=O)N1CCCCC1 (stereo unspecified)	-0.4571%	9.053%	-25.82%	1.478%
CS(=O)(=O)N1CC2(CCN(CC3CC3)C2)Cc2ccccc21 (stereo unspecified)	-1.469%	9.963%	-14.17%	11.24%
Cc1nc(C)n(CC2CCCN2CCOc2ccc(C#N)cc2)n1 (stereo unspecified)	1.652%	26.75%	-35.96%	6.767%
Cc1cc(C)n(CC2CN(Cc3cnc(C)s3)CCO2)n1 (stereo unspecified)	13.83%	-4.931%	-37.2%	3.529%
Cc1cc(CSc2nc(=O)ccn2C(C)C)no1	-3.846%	9.68%	-15.04%	3.704%
O=C(Nc1nnc(C(F)F)s1)N[C@H](CCO)c1ccccc1	2.369%	15.85%	-46.31%	1.754%
CN(CCc1ccccn1)c1cnn(C)c(=O)c1Br	-2.754%	-0.7485%	14.94%	11.44%
Cc1cccc(C)c1NC(=O)CCNC(=O)c1ccoc1	6.802%	11.83%	-10.76%	4.906%
COc1ccccc1C(C)NC(=O)N1CCN(Cc2ccc(Br)s2)CC1 (stereo unspecified)	0.3027%	-11.56%	-70.62%	5.732%
Cc1nc(C2CCNCC2)cc(N(C)Cc2cc3cc(F)ccc3[nH]2)n1	6.675%	78.55%	-25.75%	-1.212%
CCn1nc(C)cc1NC(=O)CCn1nc(C)c(Br)c1C	3.437%	15.6%	-2.886%	-0.4464%
O=C(NCc1nc(NC2CCCC2)c2cc(Cl)ccc2n1)c1cscn1	0.503%	-23.63%	-27.21%	12.04%
COc1ccc(C(=O)N2CCC(Nc3ccc(C)nn3)CC2)cc1	0.8946%	21.56%	-13.2%	3.38%
Cc1nc(CNC2CCCN(c3cccnn3)C2)no1 (stereo unspecified)	-0.4295%	-25.69%	-5.065%	6.548%
COc1c(CNCCNC(=O)c2ccccc2)c(C)nn1C	-5.018%	-	-20.84%	4.094%
CC(NCc1cccc(COC2CCCC2)c1)c1cnn(C)c1 (stereo unspecified)	1.06%	-24.08%	2.267%	0%
CCc1nc2n(n1)CC(NCC(=O)Nc1ccc(Cl)cn1)CC2 (stereo unspecified)	1.967%	11.34%	-16.47%	3.008%
CCOCCC(=O)Nc1cc(C(N)=O)ccc1N1CCCC(C)C1 (stereo unspecified)	-6.708%	-14.18%	8.102%	5.747%
O[C@@H]1CN(Cc2ccc(F)cc2)CC[C@H]1NCc1ccccn1	20.84%	-	-12.77%	7.576%
CCC(CN1CCCC1)n1cncc1-c1cnn(Cc2ccccc2)c1 (stereo unspecified)	-5.937%	-	2.914%	9.848%
CSc1ccccc1C(=O)NCCCN1CCc2ccccc2C1	-1.132%	40.68%	4.385%	7.345%
CC(C)Cc1nc(NC(=O)c2cc(-c3cccnc3)n[nH]2)n[nH]1	1.961%	-1.892%	8.12%	6%
Cc1noc(C2(C)CCN(C(=O)C(C)C)CC2)n1	-7.948%	25.11%	8.075%	7.692%
Cc1cc(CNc2ccc3nc(C4CC4)sc3c2)no1	-4.263%	-4.197%	-18.12%	7.853%
CC(c1ccccn1)N(C)C(=O)NCCn1c(=O)oc2ccccc21 (stereo unspecified)	12.18%	2.298%	4.941%	-2.222%

For reference, 4 entries once more:

- O=C(Nc1nnc(C(F)F)s1)N[C@H](CCO)c1ccccc1 | MtTrpRS: 2.369%; Leishmania in macrophages: 15.85%; Pks13 thioesterase: -46.31%; TcHisRS: 1.754%
- O=C(COc1cccnc1)NCc1nncn1C1CCCCC1 | MtTrpRS: -3.366%; Leishmania in macrophages: 25.14%; Pks13 thioesterase: -20.28%; TcHisRS: 11.9%
- COCc1ncn(Cc2nc(-c3ccc(OC)cc3F)oc2C)n1 | MtTrpRS: 7.492%; Leishmania in macrophages: -35.79%; Pks13 thioesterase: 14.42%; TcHisRS: -2.439%
- CCn1nc(C)cc1NC(=O)CCn1nc(C)c(Br)c1C | MtTrpRS: 3.437%; Leishmania in macrophages: 15.6%; Pks13 thioesterase: -2.886%; TcHisRS: -0.4464%